Test results taken from the supplement of paper PMC10849652.
This is one part of the list.

The chains behind the UniProt entries cited, without tags or fusion partners. Where a name states a change or a piece, a line headed by the entry shows the natural chain unless it says otherwise.
UniProt Q5SW79: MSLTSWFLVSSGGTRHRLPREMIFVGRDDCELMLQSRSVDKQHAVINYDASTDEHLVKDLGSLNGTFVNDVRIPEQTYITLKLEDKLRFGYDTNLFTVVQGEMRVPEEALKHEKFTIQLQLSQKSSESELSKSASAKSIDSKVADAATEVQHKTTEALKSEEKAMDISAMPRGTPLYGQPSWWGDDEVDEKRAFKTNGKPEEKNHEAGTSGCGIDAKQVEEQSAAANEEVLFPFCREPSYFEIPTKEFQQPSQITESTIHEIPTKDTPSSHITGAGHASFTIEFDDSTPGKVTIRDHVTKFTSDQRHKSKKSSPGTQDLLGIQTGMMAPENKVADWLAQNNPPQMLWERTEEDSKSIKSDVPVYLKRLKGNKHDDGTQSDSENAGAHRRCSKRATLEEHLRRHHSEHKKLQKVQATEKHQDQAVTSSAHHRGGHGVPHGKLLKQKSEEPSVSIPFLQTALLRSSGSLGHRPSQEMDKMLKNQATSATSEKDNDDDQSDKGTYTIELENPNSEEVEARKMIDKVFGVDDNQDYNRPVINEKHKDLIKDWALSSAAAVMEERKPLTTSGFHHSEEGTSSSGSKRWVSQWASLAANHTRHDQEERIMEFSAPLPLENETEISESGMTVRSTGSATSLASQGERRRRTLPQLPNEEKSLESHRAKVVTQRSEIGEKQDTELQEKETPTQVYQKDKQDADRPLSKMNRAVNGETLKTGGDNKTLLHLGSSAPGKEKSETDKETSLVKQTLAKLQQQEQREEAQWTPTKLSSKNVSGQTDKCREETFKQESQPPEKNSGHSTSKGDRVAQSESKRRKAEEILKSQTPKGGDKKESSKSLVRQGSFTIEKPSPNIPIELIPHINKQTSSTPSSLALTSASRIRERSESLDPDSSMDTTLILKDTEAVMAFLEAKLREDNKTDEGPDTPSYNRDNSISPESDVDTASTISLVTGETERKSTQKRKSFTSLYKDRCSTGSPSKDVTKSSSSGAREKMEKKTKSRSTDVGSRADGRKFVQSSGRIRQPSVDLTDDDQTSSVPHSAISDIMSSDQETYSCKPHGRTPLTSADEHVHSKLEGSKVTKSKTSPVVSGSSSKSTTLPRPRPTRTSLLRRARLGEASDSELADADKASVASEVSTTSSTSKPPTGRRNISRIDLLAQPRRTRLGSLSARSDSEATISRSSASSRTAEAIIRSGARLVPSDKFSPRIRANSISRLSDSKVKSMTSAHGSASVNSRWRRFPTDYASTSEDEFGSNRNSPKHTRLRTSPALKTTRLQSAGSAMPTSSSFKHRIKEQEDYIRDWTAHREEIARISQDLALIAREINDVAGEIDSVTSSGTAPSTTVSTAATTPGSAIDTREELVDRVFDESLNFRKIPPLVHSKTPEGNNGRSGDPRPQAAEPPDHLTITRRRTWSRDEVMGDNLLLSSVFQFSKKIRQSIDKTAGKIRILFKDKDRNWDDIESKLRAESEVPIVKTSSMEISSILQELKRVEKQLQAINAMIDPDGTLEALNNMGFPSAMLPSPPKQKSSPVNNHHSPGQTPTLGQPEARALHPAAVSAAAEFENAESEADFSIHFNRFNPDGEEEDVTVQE
UniProt Q8IW35: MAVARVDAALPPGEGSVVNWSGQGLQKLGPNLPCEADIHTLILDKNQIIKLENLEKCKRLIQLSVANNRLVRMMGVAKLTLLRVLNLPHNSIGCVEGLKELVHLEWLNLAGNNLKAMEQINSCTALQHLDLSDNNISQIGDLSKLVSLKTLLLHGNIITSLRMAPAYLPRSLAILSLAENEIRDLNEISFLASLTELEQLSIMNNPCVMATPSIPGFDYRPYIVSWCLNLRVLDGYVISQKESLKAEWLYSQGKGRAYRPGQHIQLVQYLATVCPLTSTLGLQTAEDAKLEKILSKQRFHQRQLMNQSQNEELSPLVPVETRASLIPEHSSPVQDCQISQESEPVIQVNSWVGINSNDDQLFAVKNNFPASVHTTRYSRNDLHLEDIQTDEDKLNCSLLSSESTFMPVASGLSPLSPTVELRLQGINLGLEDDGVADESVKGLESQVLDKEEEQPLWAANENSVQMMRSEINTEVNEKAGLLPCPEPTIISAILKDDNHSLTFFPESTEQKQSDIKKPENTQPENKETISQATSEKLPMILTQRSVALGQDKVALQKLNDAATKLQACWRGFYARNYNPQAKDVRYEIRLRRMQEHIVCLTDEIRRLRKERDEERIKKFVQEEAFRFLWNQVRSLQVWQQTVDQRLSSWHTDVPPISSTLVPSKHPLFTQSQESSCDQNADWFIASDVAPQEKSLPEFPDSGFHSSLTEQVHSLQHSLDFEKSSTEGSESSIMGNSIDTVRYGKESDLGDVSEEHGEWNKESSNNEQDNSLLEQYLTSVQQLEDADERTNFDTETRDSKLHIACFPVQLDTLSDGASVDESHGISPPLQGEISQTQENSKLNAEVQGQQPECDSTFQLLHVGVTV
UniProt Q99618: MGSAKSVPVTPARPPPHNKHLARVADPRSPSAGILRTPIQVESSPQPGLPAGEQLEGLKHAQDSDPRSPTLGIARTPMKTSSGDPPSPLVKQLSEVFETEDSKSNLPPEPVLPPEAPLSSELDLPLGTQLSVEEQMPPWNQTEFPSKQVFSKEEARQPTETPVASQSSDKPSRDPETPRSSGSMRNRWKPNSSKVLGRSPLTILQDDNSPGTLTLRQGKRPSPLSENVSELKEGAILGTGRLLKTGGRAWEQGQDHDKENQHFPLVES
UniProt P60953, whole entry, looked up: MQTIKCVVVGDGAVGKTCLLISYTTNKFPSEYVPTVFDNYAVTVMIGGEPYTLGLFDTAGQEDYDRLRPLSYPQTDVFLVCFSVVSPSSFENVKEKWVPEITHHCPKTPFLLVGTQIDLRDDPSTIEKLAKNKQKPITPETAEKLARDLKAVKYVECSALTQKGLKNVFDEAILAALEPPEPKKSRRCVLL
UniProt Q96G23: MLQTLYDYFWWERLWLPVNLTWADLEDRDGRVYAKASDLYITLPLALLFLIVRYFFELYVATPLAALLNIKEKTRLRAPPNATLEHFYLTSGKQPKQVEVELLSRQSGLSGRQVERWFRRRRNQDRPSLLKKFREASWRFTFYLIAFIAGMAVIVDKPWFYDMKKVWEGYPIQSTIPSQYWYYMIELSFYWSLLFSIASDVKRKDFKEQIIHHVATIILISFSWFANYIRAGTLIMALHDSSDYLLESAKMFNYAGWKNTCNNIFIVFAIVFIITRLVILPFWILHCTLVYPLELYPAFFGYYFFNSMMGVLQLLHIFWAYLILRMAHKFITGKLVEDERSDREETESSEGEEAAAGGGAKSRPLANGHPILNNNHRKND
UniProt O75419: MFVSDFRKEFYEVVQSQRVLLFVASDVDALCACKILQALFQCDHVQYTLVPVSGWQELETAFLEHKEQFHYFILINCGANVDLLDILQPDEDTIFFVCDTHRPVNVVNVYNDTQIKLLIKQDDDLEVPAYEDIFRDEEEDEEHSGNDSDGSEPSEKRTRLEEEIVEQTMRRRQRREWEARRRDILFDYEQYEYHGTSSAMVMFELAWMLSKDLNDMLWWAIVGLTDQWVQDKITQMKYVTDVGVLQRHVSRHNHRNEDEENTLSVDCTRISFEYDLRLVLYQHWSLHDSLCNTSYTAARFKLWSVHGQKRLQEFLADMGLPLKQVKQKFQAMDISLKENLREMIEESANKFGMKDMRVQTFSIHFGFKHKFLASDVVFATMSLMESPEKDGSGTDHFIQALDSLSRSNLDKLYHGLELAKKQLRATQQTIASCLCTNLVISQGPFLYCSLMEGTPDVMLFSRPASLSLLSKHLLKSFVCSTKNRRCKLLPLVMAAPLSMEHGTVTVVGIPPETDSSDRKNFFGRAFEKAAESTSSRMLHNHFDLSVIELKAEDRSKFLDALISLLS
UniProt Q9H5V8, whole entry, looked up: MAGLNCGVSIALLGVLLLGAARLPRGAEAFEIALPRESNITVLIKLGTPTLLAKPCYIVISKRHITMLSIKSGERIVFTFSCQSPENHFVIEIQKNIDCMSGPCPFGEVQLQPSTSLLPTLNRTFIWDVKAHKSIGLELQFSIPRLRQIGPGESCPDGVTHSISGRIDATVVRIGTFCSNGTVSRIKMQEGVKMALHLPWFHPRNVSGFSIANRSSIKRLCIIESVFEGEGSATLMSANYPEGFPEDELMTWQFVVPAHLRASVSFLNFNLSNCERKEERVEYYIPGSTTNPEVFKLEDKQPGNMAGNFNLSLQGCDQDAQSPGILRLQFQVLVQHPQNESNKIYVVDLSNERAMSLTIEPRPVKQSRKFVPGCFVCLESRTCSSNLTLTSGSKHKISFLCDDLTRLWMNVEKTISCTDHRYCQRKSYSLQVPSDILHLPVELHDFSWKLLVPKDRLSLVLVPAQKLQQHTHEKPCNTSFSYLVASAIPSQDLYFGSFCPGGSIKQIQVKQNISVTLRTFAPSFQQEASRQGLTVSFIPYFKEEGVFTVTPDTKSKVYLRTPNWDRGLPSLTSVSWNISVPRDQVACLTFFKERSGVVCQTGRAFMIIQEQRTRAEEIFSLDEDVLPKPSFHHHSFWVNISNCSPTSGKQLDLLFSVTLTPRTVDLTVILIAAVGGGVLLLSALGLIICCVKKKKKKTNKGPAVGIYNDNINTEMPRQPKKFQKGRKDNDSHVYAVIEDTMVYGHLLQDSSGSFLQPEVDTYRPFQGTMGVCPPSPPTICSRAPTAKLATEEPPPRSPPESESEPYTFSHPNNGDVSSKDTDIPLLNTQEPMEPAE
UniProt Q8NHZ8, whole entry, looked up: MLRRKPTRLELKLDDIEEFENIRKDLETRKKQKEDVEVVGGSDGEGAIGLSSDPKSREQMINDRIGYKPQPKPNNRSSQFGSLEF
UniProt Q9Y5S2: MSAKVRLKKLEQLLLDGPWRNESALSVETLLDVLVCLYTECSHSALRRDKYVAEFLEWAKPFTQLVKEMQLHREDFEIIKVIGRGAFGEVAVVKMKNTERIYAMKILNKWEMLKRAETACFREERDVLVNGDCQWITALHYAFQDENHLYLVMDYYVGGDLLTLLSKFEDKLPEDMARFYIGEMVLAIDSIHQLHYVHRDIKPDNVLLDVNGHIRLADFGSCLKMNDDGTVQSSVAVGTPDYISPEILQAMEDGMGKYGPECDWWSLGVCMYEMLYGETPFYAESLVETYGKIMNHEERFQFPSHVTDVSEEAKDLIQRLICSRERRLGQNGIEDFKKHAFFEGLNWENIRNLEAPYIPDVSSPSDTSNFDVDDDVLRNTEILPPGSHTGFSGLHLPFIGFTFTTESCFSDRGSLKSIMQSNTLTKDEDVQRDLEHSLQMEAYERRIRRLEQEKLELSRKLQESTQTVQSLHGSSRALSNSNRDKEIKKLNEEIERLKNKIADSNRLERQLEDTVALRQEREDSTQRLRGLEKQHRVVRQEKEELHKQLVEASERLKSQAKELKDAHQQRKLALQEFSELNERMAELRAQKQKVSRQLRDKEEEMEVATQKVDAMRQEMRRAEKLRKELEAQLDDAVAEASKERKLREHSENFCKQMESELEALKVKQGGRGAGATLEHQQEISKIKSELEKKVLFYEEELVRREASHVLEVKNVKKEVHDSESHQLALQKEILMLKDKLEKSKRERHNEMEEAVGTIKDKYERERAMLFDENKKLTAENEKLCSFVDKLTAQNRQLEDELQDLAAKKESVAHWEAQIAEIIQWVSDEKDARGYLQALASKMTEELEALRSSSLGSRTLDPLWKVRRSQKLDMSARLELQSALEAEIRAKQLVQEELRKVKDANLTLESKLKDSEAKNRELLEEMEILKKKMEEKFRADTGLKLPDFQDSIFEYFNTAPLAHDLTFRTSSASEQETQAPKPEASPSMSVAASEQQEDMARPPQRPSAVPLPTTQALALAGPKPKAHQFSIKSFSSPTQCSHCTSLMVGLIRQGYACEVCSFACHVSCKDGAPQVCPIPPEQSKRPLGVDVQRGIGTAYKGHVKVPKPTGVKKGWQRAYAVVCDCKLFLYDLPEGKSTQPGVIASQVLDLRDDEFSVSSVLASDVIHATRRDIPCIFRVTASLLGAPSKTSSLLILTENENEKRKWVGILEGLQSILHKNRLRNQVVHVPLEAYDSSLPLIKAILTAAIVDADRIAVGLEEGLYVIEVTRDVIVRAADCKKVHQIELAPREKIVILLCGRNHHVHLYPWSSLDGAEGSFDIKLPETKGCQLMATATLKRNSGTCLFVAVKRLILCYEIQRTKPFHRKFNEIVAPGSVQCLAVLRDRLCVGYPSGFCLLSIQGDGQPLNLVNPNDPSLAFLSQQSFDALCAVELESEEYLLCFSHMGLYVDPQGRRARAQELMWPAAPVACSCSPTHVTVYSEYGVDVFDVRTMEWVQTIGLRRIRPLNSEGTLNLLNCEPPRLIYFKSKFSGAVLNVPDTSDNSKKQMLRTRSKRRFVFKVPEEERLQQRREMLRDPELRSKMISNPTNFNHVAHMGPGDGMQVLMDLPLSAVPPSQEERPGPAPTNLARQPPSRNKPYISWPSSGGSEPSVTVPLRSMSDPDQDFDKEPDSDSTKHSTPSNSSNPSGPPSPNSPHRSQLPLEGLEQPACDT

What follows are targets tested with C[C@H](C1=CC=C(C=C1)C(=O)NC2=C3C=CNC3=NC=C2)N (assay: log2 fold change, soluble protein after heating vs DMSO (PISA); higher = thermal stabilisation; K562 lysate, 10 uM; active = over 0.2 and 3.5 SD of the protein, either way, in both replicates (recomputed)).
Procedure, shortened: (§1)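 Following dounce homogenisation of K562 pellets in PBS pH 7.4 with 1 mM MgCl2, crude extract at 1 mg/mL protein was incubated for 30 min with 10 μM compound. Aliquots were then heated for 3 min over 48°C-58°C and pooled, NP-40 was added to 0.5% at 4°C, and soluble protein was recovered as the supernatant at 21,000xg for 90 min. Channel-sum-equalised TMTpro 16plex LC-MS/MS quantified this protein. Each value, from duplicates, is a log-two fold change in thermal stability relative to solvent controls.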
In the case of CEP350 (UniProt Q5VT06), the log2 fold change is reported as inactive: 0.005. With CEP170 (UniProt Q5SW79) the log2 fold change was inactive: -0.098. CFH (UniProt P08603) was tested, and the log2 fold change was inactive: 0.176. For CFL2 (UniProt Q9Y281), the log2 fold change was inactive: -0.077. CFDP1 (UniProt Q9UEE9) was tested, and the log2 fold change was active: -0.288. CEP97 (UniProt Q8IW35) was tested, and the log2 fold change was inactive: 0.004. With CDCA3 (UniProt Q99618) the log2 fold change was inactive: -0.062. For CDC42 isoform 1 (UniProt P60953), the log2 fold change was inactive: -0.14. In the case of CENPH (UniProt Q9H3R5), the log2 fold change is reported as inactive: 0.04. For CERS2 (UniProt Q96G23), the log2 fold change was inactive: -0.009. With CDC45 isoform 3 (UniProt O75419) the log2 fold change was inactive: 0.023. In the case of CFL1 (UniProt P23528), the log2 fold change is reported as inactive: 0.063. CENPK (UniProt Q9BS16) was tested, and the log2 fold change was inactive: -0.01. CDCP1 (UniProt Q9H5V8) was tested, and the log2 fold change was inactive: -0.017. CDC26 (UniProt Q8NHZ8) was tested, and the log2 fold change was inactive: -0.001. With CENPU (UniProt Q71F23) the log2 fold change was inactive: 0.065. With CDC42BPB (UniProt Q9Y5S2) the log2 fold change was inactive: 0.223. With CEP85 isoform 2 (UniProt Q6P2H3) the log2 fold change was inactive: 0.122. CDKAL1 (UniProt Q5VV42) was tested, and the log2 fold change was inactive: -0.047. With CEP135 (UniProt Q66GS9) the log2 fold change was inactive: -0.04. CDK19 (UniProt Q9BWU1) was tested, and the log2 fold change was inactive: -0.056. In the case of CEP76 (UniProt Q8TAP6), the log2 fold change is reported as inactive: -0.063. With CDIPT (UniProt O14735) the log2 fold change was inactive: 0.016. With CDR2 (UniProt Q01850) the log2 fold change was inactive: -0.027. CDC40 (UniProt O60508) was tested, and the log2 fold change was inactive: -0.027. In the case of CDC42 (UniProt P60953), the log2 fold change is reported as inactive: 0.112. In the case of CETN2 (UniProt P41208), the log2 fold change is reported as inactive: 0.021. CDC23 (UniProt Q9UJX2) was tested, and the log2 fold change was inactive: -0.001. In the case of CDK2AP1 (UniProt O14519), the log2 fold change is reported as inactive: 0.004. For CDC37L1 (UniProt Q7L3B6), the log2 fold change was inactive: 0.02. CENPS (UniProt Q8N2Z9) was tested, and the log2 fold change was inactive: 0.006. With CDC5L (UniProt Q99459) the log2 fold change was inactive: 0.066. For CERS6 isoform 2 (UniProt Q6ZMG9), the log2 fold change was inactive: -0.187.

What follows are targets tested with C[C@H](Nc1ncnc2nc[nH]c12)c1cc2cccc(Cl)c2c(=O)n1-c1ccccc1 [duvelisib] in the same assay as above.
Procedure, shortened: as §1
In the case of CEP350 (UniProt Q5VT06), the log2 fold change is reported as inactive: 0.012. CEP170 (UniProt Q5SW79) was tested, and the log2 fold change was inactive: 0.01. With CFH (UniProt P08603) the log2 fold change was inactive: -0.08. For CFL2 (UniProt Q9Y281), the log2 fold change was inactive: -0.002. For CFDP1 (UniProt Q9UEE9), the log2 fold change was inactive: 0.006. In the case of CEP97 (UniProt Q8IW35), the log2 fold change is reported as inactive: -0.015. For CDCA3 (UniProt Q99618), the log2 fold change was inactive: -0.021. For CDC42 isoform 1 (UniProt P60953), the log2 fold change was inactive: 0.072. For CENPH (UniProt Q9H3R5), the log2 fold change was inactive: 0.025. CERS2 (UniProt Q96G23) was tested, and the log2 fold change was inactive: -0.041. In the case of CDC45 isoform 3 (UniProt O75419), the log2 fold change is reported as inactive: -0.007. With CFL1 (UniProt P23528) the log2 fold change was inactive: 0.015. With CENPK (UniProt Q9BS16) the log2 fold change was inactive: 0.022. With CDCP1 (UniProt Q9H5V8) the log2 fold change was inactive: -0.02. CDC26 (UniProt Q8NHZ8) was tested, and the log2 fold change was inactive: 0.049. In the case of CENPU (UniProt Q71F23), the log2 fold change is reported as inactive: 0.026. In the case of CDC42BPB (UniProt Q9Y5S2), the log2 fold change is reported as inactive: 0.055. For CEP85 isoform 2 (UniProt Q6P2H3), the log2 fold change was inactive: 0.008. In the case of CDKAL1 (UniProt Q5VV42), the log2 fold change is reported as inactive: -0.039. With CEP135 (UniProt Q66GS9) the log2 fold change was inactive: 0.021. For CDK19 (UniProt Q9BWU1), the log2 fold change was inactive: 0. In the case of CEP76 (UniProt Q8TAP6), the log2 fold change is reported as inactive: 0.141. For CDIPT (UniProt O14735), the log2 fold change was inactive: 0.022. For CDR2 (UniProt Q01850), the log2 fold change was inactive: -0.078. For CDC40 (UniProt O60508), the log2 fold change was inactive: 0. In the case of CDC42 (UniProt P60953), the log2 fold change is reported as inactive: -0.024. For CETN2 (UniProt P41208), the log2 fold change was inactive: 0.038. With CDC23 (UniProt Q9UJX2) the log2 fold change was inactive: 0.032. For CDK2AP1 (UniProt O14519), the log2 fold change was inactive: -0.068. For CDC37L1 (UniProt Q7L3B6), the log2 fold change was inactive: 0.032. For CENPS (UniProt Q8N2Z9), the log2 fold change was inactive: -0.029. In the case of CDC5L (UniProt Q99459), the log2 fold change is reported as inactive: 0.011. For CERS6 isoform 2 (UniProt Q6ZMG9), the log2 fold change was inactive: 0.208.

These targets were tested with Cc1cc(Nc2cc(CN3CCOCC3)c3nc(C)c(Cc4ccc(Cl)cc4F)n3n2)n[nH]1 [gandotinib] in the same assay as above.
Procedure, shortened: as §1
CEP350 (UniProt Q5VT06) was tested, and the log2 fold change was inactive: 0.031. With CEP170 (UniProt Q5SW79) the log2 fold change was inactive: 0.005. With CFH (UniProt P08603) the log2 fold change was inactive: -0.08. In the case of CFL2 (UniProt Q9Y281), the log2 fold change is reported as inactive: 0.021. For CFDP1 (UniProt Q9UEE9), the log2 fold change was inactive: 0.066. In the case of CEP97 (UniProt Q8IW35), the log2 fold change is reported as inactive: -0.001. CDCA3 (UniProt Q99618) was tested, and the log2 fold change was inactive: 0.053. In the case of CDC42 isoform 1 (UniProt P60953), the log2 fold change is reported as inactive: 0.086. With CENPH (UniProt Q9H3R5) the log2 fold change was inactive: -0.05. In the case of CERS2 (UniProt Q96G23), the log2 fold change is reported as inactive: -0.139. For CDC45 isoform 3 (UniProt O75419), the log2 fold change was inactive: -0.079. In the case of CFL1 (UniProt P23528), the log2 fold change is reported as inactive: -0.018. For CENPK (UniProt Q9BS16), the log2 fold change was inactive: -0.029. CDCP1 (UniProt Q9H5V8) was tested, and the log2 fold change was inactive: 0.019. In the case of CDC26 (UniProt Q8NHZ8), the log2 fold change is reported as inactive: 0.108. For CENPU (UniProt Q71F23), the log2 fold change was inactive: -0.117. CDC42BPB (UniProt Q9Y5S2) was tested, and the log2 fold change was inactive: -0.177. In the case of CEP85 isoform 2 (UniProt Q6P2H3), the log2 fold change is reported as inactive: -0.075. With CDKAL1 (UniProt Q5VV42) the log2 fold change was inactive: -0.038. With CEP135 (UniProt Q66GS9) the log2 fold change was inactive: -0.012. For CDK19 (UniProt Q9BWU1), the log2 fold change was inactive: -0.14. CEP76 (UniProt Q8TAP6) was tested, and the log2 fold change was inactive: 0.007. CDIPT (UniProt O14735) was tested, and the log2 fold change was inactive: -0.188. CDR2 (UniProt Q01850) was tested, and the log2 fold change was inactive: 0.032. With CDC40 (UniProt O60508) the log2 fold change was inactive: 0.002. In the case of CDC42 (UniProt P60953), the log2 fold change is reported as inactive: -0.124. For CETN2 (UniProt P41208), the log2 fold change was inactive: -0.06. For CDC23 (UniProt Q9UJX2), the log2 fold change was inactive: -0.071. For CDK2AP1 (UniProt O14519), the log2 fold change was inactive: 0.024. CDC37L1 (UniProt Q7L3B6) was tested, and the log2 fold change was inactive: 0.028. With CENPS (UniProt Q8N2Z9) the log2 fold change was inactive: 0.026. In the case of CDC5L (UniProt Q99459), the log2 fold change is reported as inactive: -0.076. For CERS6 isoform 2 (UniProt Q6ZMG9), the log2 fold change was inactive: -0.052.
